For six molecules, binding results are on record in publication PMC5841321.

Results are given in words; binding and its absence hold for the method and conditions named. Binding seen in cells or lysates may run through a third protein. These calls come from enrichment with a bait or labelling near it, and not all partners need be listed.

First the molecules themselves.
T1: E3 ubiquitin-protein ligase Midline-1 (UniProt O15344)
T1 sequence: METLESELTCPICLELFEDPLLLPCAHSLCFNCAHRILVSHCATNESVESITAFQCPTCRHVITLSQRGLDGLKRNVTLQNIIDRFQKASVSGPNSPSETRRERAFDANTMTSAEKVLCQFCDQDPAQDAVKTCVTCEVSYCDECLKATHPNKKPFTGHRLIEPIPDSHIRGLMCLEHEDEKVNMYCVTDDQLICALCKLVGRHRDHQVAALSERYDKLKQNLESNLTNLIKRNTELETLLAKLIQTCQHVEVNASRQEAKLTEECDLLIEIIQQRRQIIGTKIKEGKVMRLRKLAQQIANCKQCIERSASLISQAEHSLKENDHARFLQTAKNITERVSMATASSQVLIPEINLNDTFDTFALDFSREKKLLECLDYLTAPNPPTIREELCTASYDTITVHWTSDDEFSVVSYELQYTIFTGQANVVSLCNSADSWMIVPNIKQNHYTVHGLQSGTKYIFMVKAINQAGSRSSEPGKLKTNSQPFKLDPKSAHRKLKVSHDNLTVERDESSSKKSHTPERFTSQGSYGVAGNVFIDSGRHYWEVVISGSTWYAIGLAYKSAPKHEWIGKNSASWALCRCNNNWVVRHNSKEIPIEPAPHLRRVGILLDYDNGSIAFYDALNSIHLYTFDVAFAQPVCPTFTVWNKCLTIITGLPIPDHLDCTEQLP

B1: Serine/threonine-protein phosphatase 6 reg. ankyrin repeat subunit A (protein, UniProt O15084 1-1053)
chain: MAFLKLRDQPSLVQAIFNGDPDEVRALIFKKEDVNFQDNEKRTPLHAAAYLGDAEIIELLILSGARVNAKDSKWLTPLHRAVASCSEEAVQVLLKHSADVNARDKNWQTPLHIAAANKAVKCAEALVPLLSNVNVSDRAGRTALHHAAFSGHGEMVKLLLSRGANINAFDKKDRRAIHWAAYMGHIEVVKLLVSHGAEVTCKDKKSYTPLHAAASSGMISVVKYLLDLGVDMNEPNAYGNTPLHVACYNGQDVVVNELIDCGAIVNQKNEKGFTPLHFAAASTHGALCLELLVGNGADVNMKSKDGKTPLHMTALHGRFSRSQTIIQSGAVIDCEDKNGNTPLHIAARYGHELLINTLITSGADTAKRGIHGMFPLHLAALSGFSDCCRKLLSSGFDIDTPDDFGRTCLHAAAAGGNLECLNLLLNTGADFNKKDKFGRSPLHYAAANCNYQCLFALVGSGASVNDLDERGCTPLHYAATSDTDGKCLEYLLRNDANPGIRDKQGYNAVHYSAAYGHRLCLQLIASETPLDVLMETSGTDMLSDSDNRATISPLHLAAYHGHHQALEVLVQSLLDLDVRNSSGRTPLDLAAFKGHVECVDVLINQGASILVKDYILKRTPIHAAATNGHSECLRLLIGNAEPQNAVDIQDGNGQTPLMLSVLNGHTDCVYSLLNKGANVDAKDKWGRTALHRGAVTGHEECVDALLQHGAKCLLRDSRGRTPIHLSAACGHIGVLGALLQSAASMDANPATADNHGYTALHWACYNGHETCVELLLEQEVFQKTEGNAFSPLHCAVINDNEGAAEMLIDTLGASIVNATDSKGRTPLHAAAFTDHVECLQLLLSHNAQVNSVDSTGKTPLMMAAENGQTNTVEMLVSSASAELTLQDNSKNTALHLACSKGHETSALLILEKITDRNLINATNAALQTPLHVAARNGLTMVVQELLGKGASVLAVDENGYTPALACAPNKDVADCLALILATMMPVSSSSPLSSLTFNAINRYTNTSKTVSFEALPIMRNEPSSYCSFNNIGGEQEYLYTDVDELNDSDSETY
B2: Heterogeneous nuclear ribonucleoprotein M (protein, UniProt P52272 1-730)
chain: MAAGVEAAAEVAATEIKMEEESGAPGVPSGNGAPGPKGEGERPAQNEKRKEKNIKRGGNRFEPYANPTKRYRAFITNIPFDVKWQSLKDLVKEKVGEVTYVELLMDAEGKSRGCAVVEFKMEESMKKAAEVLNKHSLSGRPLKVKEDPDGEHARRAMQKVMATTGGMGMGPGGPGMITIPPSILNNPNIPNEIIHALQAGRLGSTVFVANLDYKVGWKKLKEVFSMAGVVVRADILEDKDGKSRGIGTVTFEQSIEAVQAISMFNGQLLFDRPMHVKMDERALPKGDFFPPERPQQLPHGLGGIGMGLGPGGQPIDANHLNKGIGMGNIGPAGMGMEGIGFGINKMGGMEGPFGGGMENMGRFGSGMNMGRINEILSNALKRGEIIAKQGGGGGGGSVPGIERMGPGIDRLGGAGMERMGAGLGHGMDRVGSEIERMGLVMDRMGSVERMGSGIERMGPLGLDHMASSIERMGQTMERIGSGVERMGAGMGFGLERMAAPIDRVGQTIERMGSGVERMGPAIERMGLSMERMVPAGMGAGLERMGPVMDRMATGLERMGANNLERMGLERMGANSLERMGLERMGANSLERMGPAMGPALGAGIERMGLAMGGGGGASFDRAIEMERGNFGGSFAGSFGGAGGHAPGVARKACQIFVRNLPFDFTWKMLKDKFNECGHVLYADIKMENGKSKGCGVVKFESPEVAERACRMMNGMKLSGREIDVRIDRNA
B3: General transcription factor 3C polypeptide 4 (protein, UniProt Q9UKN8 1-822)
chain: MNTADQARVGPADDGPAPSGEEEGEGGGEAGGKEPAADAAPGPSAAFRLMVTRREPAVKLQYAVSGLEPLAWSEDHRVSVSTARSIAVLELICDVHNPGQDLVIHRTSVPAPLNSCLLKVGSKTEVAECKEKFAASKDPTVSQTFMLDRVFNPEGKALPPMRGFKYTSWSPMGCDANGRCLLAALTMDNRLTIQANLNRLQWVQLVDLTEIYGERLYETSYRLSKNEAPEGNLGDFAEFQRRHSMQTPVRMEWSGICTTQQVKHNNECRDVGSVLLAVLFENGNIAVWQFQLPFVGKESISSCNTIESGITSPSVLFWWEYEHNNRKMSGLIVGSAFGPIKILPVNLKAVKGYFTLRQPVILWKEMDQLPVHSIKCVPLYHPYQKCSCSLVVAARGSYVFWCLLLISKAGLNVHNSHVTGLHSLPIVSMTADKQNGTVYTCSSDGKVRQLIPIFTDVALKFEHQLIKLSDVFGSVRTHGIAVSPCGAYLAIITTEGMINGLHPVNKNYQVQFVTLKTFEEAAAQLLESSVQNLFKQVDLIDLVRWKILKDKHIPQFLQEALEKKIESSGVTYFWRFKLFLLRILYQSMQKTPSEALWKPTHEDSKILLVDSPGMGNADDEQQEEGTSSKQVVKQGLQERSKEGDVEEPTDDSLPTTGDAGGREPMEEKLLEIQGKIEAVEMHLTREHMKRVLGEVYLHTWITENTSIPTRGLCNFLMSDEEYDDRTARVLIGHISKKMNKQTFPEHCSLCKEILPFTDRKQAVCSNGHIWLRCFLTYQSCQSLIYRRCLLHDSIARHPAPEDPDWIKRLLQSPCPFCDSPVF
B4: Golgin subfamily A member 3 (protein, UniProt Q08378 1-1498)
chain: MDGASAEQDGLQEDRSHSGPSSLPEAPLKPPGPLVPPDQQDKVQCAEVNRASTEGESPDGPGQGGLCQNGPTPPFPDPPSSLDPTTSPVGPDASPGVAGFHDNLRKSQGTSAEGSVRKEALQSLRLSLPMQETQLCSTDSPLPLEKEEQVRLQARKWLEEQLKQYRVKRQQERSSQPATKTRLFSTLDPELMLNPENLPRASTLAMTKEYSFLRTSVPRGPKVGSLGLPAHPREKKTSKSSKIRSLADYRTEDSNAGNSGGNVPAPDSTKGSLKQNRSSAASVVSEISLSPDTDDRLENTSLAGDSVSEVDGNDSDSSSYSSASTRGTYGILSKTVGTQDTPYMVNGQEIPADTLGQFPSIKDVLQAAAAEHQDQGQEVNGEVRSRRDSICSSVSLESSAAETQEEMLQVLKEKMRLEGQLEALSLEASQALKEKAELQAQLAALSTKLQAQVECSHSSQQRQDSLSSEVDTLKQSCWDLERAMTDLQNMLEAKNASLASSNNDLQVAEEQYQRLMAKVEDMQRSMLSKDNTVHDLRQQMTALQSQLQQVQLERTTLTSKLKASQAEISSLQSVRQWYQQQLALAQEARVRLQGEMAHIQVGQMTQAGLLEHLKLENVSLSQQLTETQHRSMKEKGRIAAQLQGIEADMLDQEAAFMQIQEAKTMVEEDLQRRLEEFEGERERLQRMADSAASLEQQLEQVKLTLLQRDQQLEALQQEHLDLMKQLTLTQEALQSREQSLDALQTHYDELQARLGELQGEAASREDTICLLQNEKIILEAALQAAKSGKEELDRGARRLEEGTEETSETLEKLREELAIKSGQVEHLQQETAALKKQMQKIKEQFLQQKVMVEAYRRDATSKDQLISELKATRKRLDSELKELRQELMQVHGEKRTAEAELSRLHREVAQVRQHMADLEGHLQSAQKERDEMETHLQSLQFDKEQMVAVTEANEALKKQIEELQQEARKAITEQKQKMRRLGSDLTSAQKEMKTKHKAYENAVGILSRRLQEALAAKEAADAELGQLRAQGGSSDSSLALHERIQALEAELQAVSHSKTLLEKELQEVIALTSQELEESREKVLELEDELQESRGFRKKIKRLEESNKKLALELEHEKGKLTGLGQSNAALREHNSILETALAKREADLVQLNLQVQAVLQRKEEEDRQMKHLVQALQASLEKEKEKVNSLKEQVAAAKVEAGHNRRHFKAASLELSEVKKELQAKEHLVQKLQAEADDLQIREGKHSQEIAQFQAELAEARAQLQLLQKQLDEQLSKQPVGNQEMENLKWEVDQKEREIQSLKQQLDLTEQQGRKELEGLQQLLQNVKSELEMAQEDLSMTQKDKFMLQAKVSELKNNMKTLLQQNQQLKLDLRRGAAKTRKEPKGEASSSNPATPIKIPDCPVPASLLEELLRPPPAVSKEPLKNLNSCLQQLKQEMDSLQRQMEEHALTVHESLSSWTPLEPATASPVPPGGHAGPRGDPQRHSQSRASKEGPGE
B5: Guanine nucleotide-binding protein-like 3 (protein, UniProt Q9BVP2 1-549)
chain: MKRPKLKKASKRMTCHKRYKIQKKVREHHRKLRKEAKKRGHKKPRKDPGVPNSAPFKEALLREAELRKQRLEELKQQQKLDRQKELEKKRKLETNPDIKPSNVEPMEKEFGLCKTENKAKSGKQNSKKLYCQELKKVIEASDVVLEVLDARDPLGCRCPQVEEAIVQSGQKKLVLILNKSDLVPKENLESWLNYLKKELPTVVFRASTKPKDKGKITKRVKAKKNAAPFRSEVCFGKEGLWKLLGGFQETCSKAIRVGVIGFPNVGKSSIINSLKQEQMCNVGVSMGLTRSMQVVPLDKQITIIDSPSFIVSPLNSSSALALRSPASIEVVKPMEAASAILSQADARQVVLKYTVPGYRNSLEFFTVLAQRRGMHQKGGIPNVEGAAKLLWSEWTGASLAYYCHPPTSWTPPPYFNESIVVDMKSGFNLEELEKNNAQSIRAIKGPHLANSILFQSSGLTNGIIEEKDIHEELPKRKERKQEEREDDKDSDQETVDEEVDENSSGMFAAEETGEALSEETTAGEQSTRSFILDKIIEEDDAYDFSTDYV
B6: Coatomer subunit delta (protein, UniProt P48444 1-511)
chain: MVLLAAAVCTKAGKAIVSRQFVEMTRTRIEGLLAAFPKLMNTGKQHTFVETESVRYVYQPMEKLYMVLITTKNSNILEDLETLRLFSRVIPEYCRALEENEISEHCFDLIFAFDEIVALGYRENVNLAQIRTFTEMDSHEEKVFRAVRETQEREAKAEMRRKAKELQQARRDAERQGKKAPGFGGFGSSAVSGGSTAAMITETIIETDKPKVAPAPARPSGPSKALKLGAKGKEVDNFVDKLKSEGETIMSSSMGKRTSEATKMHAPPINMESVHMKIEEKITLTCGRDGGLQNMELHGMIMLRISDDKYGRIRLHVENEDKKGVQLQTHPNVDKKLFTAESLIGLKNPEKSFPVNSDVGVLKWRLQTTEESFIPLTINCWPSESGNGCDVNIEYELQEDNLELNDVVITIPLPSGVGAPVIGEIDGEYRHDSRRNTLEWCLPVIDAKNKSGSLEFSIAGQPNDFFPVQVSFVSKKNYCNIQVTKVTQVDGNSPVRFSTETTFLVDKYEIL

The target of this test is T1, E3 ubiquitin-protein ligase Midline-1. The experiment in a line: affinity purification with mass spectrometry; MID1-FLAG expressed in HEK293T, lysate in TKM buffer (20 mM Tris pH 7.4, 100 mM KCl, 5 mM MgCl2, 0.5% NP40, 1 mM DTT), anti-FLAG M1 agarose overnight at 4 °C, 6 washes; untransfected cells as control; Q-Exactive, MaxQuant, 1% FDR.
Turning to B1, the binding entry is “binds”. On to B2, for which the binding result is on record as “binds”.

As to B3, the binding entry is recorded as “binds”.

Consider B4, for which the binding result was “binds”.

With B5, the binding entry is reported as “binds”.

For the molecule B6, the binding entry is listed as “binds”.
